# Reference: paper doi:10.1101/2023.10.27.564116
# These are yes or no findings as the source states them, for the method shown. In cells and extracts the contact can be indirect. A result given as binding can be weak or reduced; the word gives no strength. For part of these data: Sequences can lack the tags named with a protein.
# T1: human SART1 (squamous cell carcinoma antigen recognized by T-cells 1), endogenous (human (endogenous in HeLa)) (UniProt O43290)
# T1 sequence: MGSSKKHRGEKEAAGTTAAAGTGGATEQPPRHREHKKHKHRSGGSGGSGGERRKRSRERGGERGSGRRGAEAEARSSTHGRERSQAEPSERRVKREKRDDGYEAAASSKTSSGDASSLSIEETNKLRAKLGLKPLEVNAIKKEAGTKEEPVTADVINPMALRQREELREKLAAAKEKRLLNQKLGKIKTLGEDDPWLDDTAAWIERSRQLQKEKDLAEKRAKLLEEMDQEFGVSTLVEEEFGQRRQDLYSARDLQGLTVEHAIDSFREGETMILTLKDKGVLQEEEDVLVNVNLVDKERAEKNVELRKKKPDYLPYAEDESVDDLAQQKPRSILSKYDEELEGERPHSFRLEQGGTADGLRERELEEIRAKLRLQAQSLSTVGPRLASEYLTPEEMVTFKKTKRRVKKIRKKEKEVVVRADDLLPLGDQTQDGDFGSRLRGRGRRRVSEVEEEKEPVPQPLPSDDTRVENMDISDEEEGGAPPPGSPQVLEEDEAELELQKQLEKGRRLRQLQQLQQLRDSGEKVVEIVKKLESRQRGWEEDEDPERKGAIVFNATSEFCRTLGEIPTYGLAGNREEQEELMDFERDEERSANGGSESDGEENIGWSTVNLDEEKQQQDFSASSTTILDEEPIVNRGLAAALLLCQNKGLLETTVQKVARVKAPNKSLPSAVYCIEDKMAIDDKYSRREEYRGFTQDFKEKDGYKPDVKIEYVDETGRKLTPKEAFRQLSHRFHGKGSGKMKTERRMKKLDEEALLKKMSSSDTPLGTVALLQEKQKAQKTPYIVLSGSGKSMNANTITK
# B1: human SART1 (squamous cell carcinoma antigen recognized by T-cells 1), endogenous (protein, UniProt O43290 1-800)
# chain: T1 sequence
# B2: human SART1 full-length, resistant to siSART1#3, FLAG-tagged (pCI-neo-hsSART1) (protein, UniProt O43290 1-800)
# chain: T1 sequence
# Experiments:
# [1] = target: T1, human SART1 (squamous cell carcinoma antigen recognized by T-cells 1), endogenous (human (endogenous in HeLa)); assay: co-sedimentation
# [2] = target: taxol-stabilized microtubules; assay: co-sedimentation
molecule,measurement,setting,value
recombinant importin α/β complex,binding,[1],binds
B1,binding,[2],binds
B2,binding,[2],binds
